The record followed here is the supplement of paper PMC7666118.

Protein sequences, listed by entry. Tags and fused reporters are not part of them.
UniProt P54709, whole entry: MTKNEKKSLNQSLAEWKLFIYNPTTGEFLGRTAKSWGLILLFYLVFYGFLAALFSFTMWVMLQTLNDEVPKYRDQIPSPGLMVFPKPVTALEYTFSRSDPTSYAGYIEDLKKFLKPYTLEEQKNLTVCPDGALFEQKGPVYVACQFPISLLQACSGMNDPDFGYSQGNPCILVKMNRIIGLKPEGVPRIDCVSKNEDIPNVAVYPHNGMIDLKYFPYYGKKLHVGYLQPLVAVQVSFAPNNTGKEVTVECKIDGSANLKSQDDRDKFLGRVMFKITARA

This is one part of the list.

This test deals with ATP1B3 (UniProt P54709). The test is described as follows: dose-dependent thermal stabilisation call (2D-TPP, DLPTP, 10% FDR) (binary (1 = stabilised)); higher = stabilised by the compound. As to conditions: system: HL-60 intact cells; concentration range 0.04-10 µM. How it is done:
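2D thermal proteome profiling in intact HL-60 cells treated with BRD-3811 (0, 0.04, 0.29, 2, 10 uM) for 90 min at 37 C, then heated 3 min at one of 12 temperatures (42-63.9 C). Soluble protein was quantified by TMT10 MS. The value is the DLPTP call of the paper: dose-dependent thermal stabilisation over all temperatures at 10% FDR (F-test of a dose-response against a flat model); one experiment, one call per tested protein.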
As to `COc1ccc(Cn2ccc3cc(C)c(C(=O)NO)cc32)cc1`, the “dose-dependent thermal stabilisation call” value is inactive: 0.
